Paper PMC4150796
No constants are given. Whether binding was seen depends on the method and setting. Binding seen in cells or lysates may run through a third protein. Binding calls can cover weak binding; strength is not graded here.

Chains of the proteins cited; added tags and fusions are not shown. Lines headed by an entry give the natural chain unless they say otherwise; changes in a name come on top.
UniProt Q13105: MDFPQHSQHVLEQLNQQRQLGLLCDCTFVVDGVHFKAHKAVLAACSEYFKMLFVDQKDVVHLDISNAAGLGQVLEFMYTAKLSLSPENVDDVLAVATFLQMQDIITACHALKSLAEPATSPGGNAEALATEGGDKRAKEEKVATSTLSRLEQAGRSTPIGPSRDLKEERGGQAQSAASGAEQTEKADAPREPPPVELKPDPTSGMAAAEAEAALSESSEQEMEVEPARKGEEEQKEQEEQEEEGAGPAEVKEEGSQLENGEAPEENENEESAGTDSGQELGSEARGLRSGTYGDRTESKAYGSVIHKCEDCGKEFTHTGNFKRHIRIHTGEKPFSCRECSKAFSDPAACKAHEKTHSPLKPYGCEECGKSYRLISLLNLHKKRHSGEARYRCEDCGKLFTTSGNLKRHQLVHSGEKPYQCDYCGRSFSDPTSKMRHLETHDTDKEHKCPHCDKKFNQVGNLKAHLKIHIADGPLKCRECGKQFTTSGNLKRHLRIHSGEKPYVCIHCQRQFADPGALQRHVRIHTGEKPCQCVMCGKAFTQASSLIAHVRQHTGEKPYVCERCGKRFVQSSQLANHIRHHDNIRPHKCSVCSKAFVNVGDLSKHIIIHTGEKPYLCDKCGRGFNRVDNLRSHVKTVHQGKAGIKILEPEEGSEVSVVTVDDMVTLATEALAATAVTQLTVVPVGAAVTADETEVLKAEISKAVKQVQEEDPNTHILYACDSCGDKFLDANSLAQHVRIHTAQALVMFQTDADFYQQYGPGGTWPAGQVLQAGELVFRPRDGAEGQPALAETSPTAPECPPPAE

Biological target: MIZ-1 POZ domain of the GST-pulldown experiments (human) (UniProt Q13105)
Assay: pull-down; GST or GST fusion on glutathione-Sepharose 4B beads incubated with 35S-labeled in vitro translated protein; 10 mM Tris-HCl pH 8, 250 mM NaCl, 0.1% NP40, 2 mg/ml BSA, 4 h at 4°C; autoradiography; only the target purified

Substance	binding
35S-labeled EBNA3A, in vitro translated (from UniProt P12977 1-944)	binds
EBNA3A 1–172 (deletion mutant) (from UniProt P12977 1-172) (domain or fragment)	binds
